Entries after “also recorded” stand apart in the source; their conditions may differ. At least one structure is not confirmed: it was looked up by name or label, or the drawing left a doubt.
System: P-glycoprotein
Experiment: Western blot analysis of P-glycoprotein expression
Format: cell-based
Settings: density of Pgp in comparison to control, FIG. 4

SMILES: Cn1c2ccccc2c2cc[n+](C)c(C(=O)c3ccccc3Br)c21 [Compound 11, 1-(2-bromo-benzoyl)-9,N-dimethyl beta-carbolinium iodide]
- P-glycoprotein expression by Western blot: induces P-glycoprotein expression significantly; also recorded: better Pgp induction activity than fascaplysin
